Results: article PMC12120768
These are yes or no findings as the source states them, for the method shown. In cells and extracts the contact can be indirect. Some results given as binding are weak or reduced against the parent protein; the word gives no strength.

Sequences of proteins named here, by UniProt entry; tags and fusion partners are left off.
UniProt O75475: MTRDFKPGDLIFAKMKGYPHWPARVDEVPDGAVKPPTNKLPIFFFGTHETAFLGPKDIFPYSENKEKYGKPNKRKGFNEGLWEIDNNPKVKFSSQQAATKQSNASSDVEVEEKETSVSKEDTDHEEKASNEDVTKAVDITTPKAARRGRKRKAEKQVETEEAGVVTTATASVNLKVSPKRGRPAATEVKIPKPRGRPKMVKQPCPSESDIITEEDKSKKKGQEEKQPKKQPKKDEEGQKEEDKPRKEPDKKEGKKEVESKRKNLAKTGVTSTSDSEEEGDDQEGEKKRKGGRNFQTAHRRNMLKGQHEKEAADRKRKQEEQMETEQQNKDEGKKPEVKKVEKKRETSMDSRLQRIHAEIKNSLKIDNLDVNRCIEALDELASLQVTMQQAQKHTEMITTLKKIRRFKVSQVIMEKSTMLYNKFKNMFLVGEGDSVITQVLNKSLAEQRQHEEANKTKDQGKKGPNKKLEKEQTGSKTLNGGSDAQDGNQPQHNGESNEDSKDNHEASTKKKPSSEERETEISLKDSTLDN
UniProt P01106: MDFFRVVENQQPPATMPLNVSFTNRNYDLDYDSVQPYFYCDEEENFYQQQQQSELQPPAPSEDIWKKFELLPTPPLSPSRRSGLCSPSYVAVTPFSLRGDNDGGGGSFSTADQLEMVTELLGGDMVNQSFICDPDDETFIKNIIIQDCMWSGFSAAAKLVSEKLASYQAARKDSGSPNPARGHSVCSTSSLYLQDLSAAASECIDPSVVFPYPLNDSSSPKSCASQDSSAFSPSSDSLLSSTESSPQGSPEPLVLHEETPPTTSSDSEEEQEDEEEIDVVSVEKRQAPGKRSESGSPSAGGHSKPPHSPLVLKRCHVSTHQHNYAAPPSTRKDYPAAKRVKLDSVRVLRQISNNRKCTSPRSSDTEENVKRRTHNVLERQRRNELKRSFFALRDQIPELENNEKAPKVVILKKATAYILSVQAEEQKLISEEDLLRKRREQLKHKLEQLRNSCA

Molecular target: PC4 and SRSF1 interacting protein 1 (human (endogenous in HCC cells)) (UniProt O75475)
Assay: co-IP; cells lysed, proteins incubated with antibodies (PSIP1, Santacruz; c-Myc, Abcam), Protein-A/G magnetic beads, washing and elution, Western blot; Co-Immunoprecipitation Kit (Bersinbio)

binding: binds
Substance: c-Myc (from UniProt P01106 1-454)
